In patent US20170343554A1, “METHODS OF MEASURING ERBB SIGNALING PATHWAY ACTIVITY TO DIAGNOSE AND TREAT CANCER PATIENTS” (Celcuity LLC, priority 2014, published 2017):
Entries after “also recorded” stand apart in the source; their conditions may differ. At least one structure is not confirmed: it was looked up by name or label, or the drawing left a doubt.

Tests used:
[1] = system: BT474 breast cancer cell line cells; experiment: Cell attachment signal (CAS) diagnostic assay, impedance biosensor (Example 6); format: cell-based; settings: NRG1 = PI3K pathway factor, estradiol = ERα pathway factor
Experimental: (§1) The analyte of the diagnostic test used herein is the cell attachment signal (CAS) that viable patient cells generate, alone or in the presence of cell antagonists, when placed in the well of a microplate and analyzed with an impedance biosensor. For every test, the CAS is measured and analyzed for […] of patient cell samples. • 1) Patient cells only (C) • 2) Patient cells+pathway factor(s) (CF) • 3) Patient cells+pathway factor(s)+confirming agent (CCF)
(§2) To detect whether the signaling pathway is functioning normally, the signaling pathway in a patient's diseased cells are perturbed and the resulting activity is compared to the effect the perturbant has on the signaling pathway activity of their healthy cells or the effect of perturbant on the signaling pathway activity of healthy cells from a patient or patients known to be free of disease. The assay measures the change in CAS between the CF and C cells in a patient's healthy cells relative to the change in CAS between the CF and C cells in the diseased cells. Alternatively, the assay can measure the change in CAS between the CF and the C cells in a patient's diseased cells that can be compared to a known result from a patient or pool of patients known to be free of disease. […] In these cases, the patient would not be considered to have the disease being analyzed. […]

[2] = system: Patient 54 primary breast cancer cells; experiment: as above; format: cell-based, human; settings: Patient 54 primary tumor cells; NRG1 = PI3K pathway factor, estradiol = ERα pathway factor
Experimental: as §1, §2

SMILES: C[C@]12CC[C@@H]3c4ccc(O)cc4CC[C@H]3[C@@H]1CC[C@@H]2O [estradiol]
- effect of the pathway factor alone on cell attachment signal (CAS) [1]: increases; also recorded: changed
- effect of the pathway factor alone on cell attachment signal (CAS) [2]: increases; also recorded: changed
